The results in this text go back to PubChem BioAssay AID212 (DTP/NCI, 2004).

Molecules are shown by their SMILES. The list is a part of this screen's results and no random one: it gathers tests that were run many times, whatever their T/C, doses with no T/C, and many T/C values between a quarter and a half above the control. Other doses and runs of a compound stand elsewhere. T/C is the treated group as % of the vehicle group. Schedule codes are those of the source, read here as Q, the interval in days (D) or hours (H), X, the number of doses. Some T/C values are followed by the survivors on the day toxicity was checked, most often the fifth; where none is given, no animal had died by that day. Some entries were tested several times; the results are listed from low to high. Some entries give survivors of the animals treated and no T/C: the source holds a T/C of zero for them, seemingly a mark for toxic or unscored doses. Survivors were counted at the toxicity check, usually on the fifth day, unless a day is given; later deaths do not show. Where survival is the endpoint, this PubChem deposit counts one and a half times the control or more as active, and values a quarter to a half above the control carry no call in these data; other NCI protocols may use other cut-offs.

The test system of this assay is BDF1 mice, colon carcinoma 38 sc, T/C %. Briefly: NCI In Vivo Anticancer Drug Screen. Data for tumor model Colon Carcinoma 38 (subcutaneous) in B6D2F1 (BDF1) mice. The gist of the method:
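Ratio of survival or tumor size, compound-treated animals relative to vehicle controls, in tumor-bearing mice.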

[1] abbreviates: T/C endpoint: median tumor weight (est.), dose: 400.0 mg/kg/injection, schedule: Q07DX002 (ip), vehicle: Klucel (hydroxypropylcellulose) (HPC), higher T/C = larger tumour.
Setting [2] is: T/C endpoint: median tumor weight (est.), dose: 50.0 mg/kg/injection, schedule: Q07DX003 (ip), vehicle: saline with Tween-80, evaluated on day 20, higher T/C = larger tumour.
The mark [3] stands for this setting: T/C endpoint: median tumor weight (est.), dose: 0.5 mg/kg/injection, schedule: Q07DX002 (ip), vehicle: saline, evaluated on day 20, higher T/C = larger tumour.

On to `CC(C)CCCCCCCCCCCCC(=O)NCC(=O)NC1C(C)OC(Nc2ncnc3nc[nH]c23)C(O)C1O` (stereo not given), for which the T/C runs as follows: (T/C endpoint: median tumor weight (est.), dose: 2.0 mg/kg/injection, schedule: Q07DX002 (ip), vehicle: distilled water + Tween-80, evaluated on day 20, higher T/C = larger tumour) 88, 100, 111 [9 of 10 alive on day 20], 201 % of control; (T/C endpoint: median tumor weight (est.), dose: 4.0 mg/kg/injection, schedule: Q07DX002 (ip), vehicle: distilled water + Tween-80, evaluated on day 20, higher T/C = larger tumour) 44, 117 [7 of 10 alive on day 20], 129 [8 of 10 alive on day 20], 161 % of control; (T/C endpoint: median tumor weight (est.), dose: 8.0 mg/kg/injection, schedule: Q07DX002 (ip), vehicle: distilled water + Tween-80, evaluated on day 20, higher T/C = larger tumour) 59, 71, 87 [8 of 10 alive on day 20], 100 % of control; (T/C endpoint: median tumor weight (est.), dose: 16.0 mg/kg/injection, schedule: Q07DX002 (ip), vehicle: distilled water + Tween-80, evaluated on day 20, higher T/C = larger tumour) 34 [8 of 9 alive on day 20], 39 [9 of 10 alive on day 20], 59 [9 of 10 alive on day 20], 113 % of control [7 of 10 alive on day 20]. The survivor count (T/C endpoint: median tumor weight (est.), dose: 32.0 mg/kg/injection, schedule: Q07DX002 (ip), vehicle: distilled water + Tween-80, higher T/C = larger tumour) was 0 of 10 on day 20, 5 of 10 on day 20, 6 of 10 on day 20.
With `C=Cc1cnc([N+](=O)[O-])n1C`, the T/C (T/C endpoint: median tumor weight (est.), dose: 50.0 mg/kg/injection, schedule: Q07DX002 (ip), vehicle: Klucel (hydroxypropylcellulose) (HPC), evaluated on day 20, higher T/C = larger tumour) is 149 % of control. Besides, under setting [1], the survivor count was 0 of 10 on day 20 and 1 of 10 on day 20.
`CC1(O)C=CC(=O)C=C1`: the T/C runs as follows: (T/C endpoint: median tumor weight (est.), dose: 12.5 mg/kg/injection, schedule: Q07DX002 (ip), vehicle: water, evaluated on day 20, higher T/C = larger tumour) 142 % of control; (T/C endpoint: median tumor weight (est.), dose: 25.0 mg/kg/injection, schedule: Q07DX002 (ip), vehicle: water, evaluated on day 20, higher T/C = larger tumour) 133 % of control. Besides, the survivor count is, setting by setting: (T/C endpoint: median tumor weight (est.), dose: 100.0 mg/kg/injection, schedule: Q07DX002 (ip), vehicle: water, higher T/C = larger tumour) 0 of 10 on day 20; (T/C endpoint: median tumor weight (est.), dose: 200.0 mg/kg/injection, schedule: Q07DX002 (ip), vehicle: water, higher T/C = larger tumour) 0 of 10 on day 20.
Turning to `COC(OC(CO)C(O)S(=O)(=O)O)C(O)S(=O)(=O)O` (stereo not given), the T/C runs as follows: (T/C endpoint: median tumor weight (est.), dose: 12.5 mg/kg/injection, schedule: Q07DX002 (ip), vehicle: saline, evaluated on day 20, higher T/C = larger tumour) 132 % of control; (T/C endpoint: median tumor weight (est.), dose: 25.0 mg/kg/injection, schedule: Q07DX002 (ip), vehicle: saline, evaluated on day 20, higher T/C = larger tumour) 135 % of control.
As for `CCCCCCCCCCCCCCCCCC(=O)OCC(=O)OCC(=O)[C@]1(O)Cc2c(O)c3c(c(O)c2[C@@H](OC2CC(N)C(O)C(C)O2)C1)C(=O)c1c(OC)cccc1C3=O` (stereo not given in full), the T/C reads like this: (T/C endpoint: median survival time, dose: 18.6 mg/kg/injection, schedule: Q07DX002 (iv), vehicle: saline, higher T/C = longer survival) 128 % of control; (T/C endpoint: median survival time, dose: 30.0 mg/kg/injection, schedule: Q07DX002 (iv), vehicle: saline, higher T/C = longer survival) 132 % of control [9 of 10 alive on day 44]. The survivor count runs as follows: (T/C endpoint: median survival time, dose: 48.0 mg/kg/injection, schedule: Q07DX002 (iv), vehicle: saline, higher T/C = longer survival) 6 of 10 on day 44; (T/C endpoint: median survival time, dose: 78.0 mg/kg/injection, schedule: Q07DX002 (iv), vehicle: saline, higher T/C = longer survival) 4 of 10 on day 44; (T/C endpoint: median tumor weight (est.), dose: 27.0 mg/kg/injection, schedule: Q07DX002 (ip), vehicle: saline with Tween-80, higher T/C = larger tumour) 1 of 10 on day 20; (T/C endpoint: median tumor weight (est.), dose: 54.0 mg/kg/injection, schedule: Q07DX002 (ip), vehicle: saline with Tween-80, higher T/C = larger tumour) 0 of 10 on day 20 and 5 of 10 on day 20.
As for `Cc1ncc([N+](=O)[O-])n1CCSC(N)=O`, the T/C was 131 % of control under setting [2]; 128 % of control (T/C endpoint: median tumor weight (est.), dose: 200.0 mg/kg/injection, schedule: Q07DX003 (ip), vehicle: saline with Tween-80, evaluated on day 20, higher T/C = larger tumour); 133 % of control [9 of 10 alive] (T/C endpoint: median tumor weight (est.), dose: 400.0 mg/kg/injection, schedule: Q07DX003 (ip), vehicle: saline with Tween-80, evaluated on day 20, higher T/C = larger tumour).
On to `CCC1CN2C(=N1)c1ccccc1-c1cc(Cl)ccc12` (stereo not given), for which the T/C (T/C endpoint: median tumor weight (est.), dose: 25.0 mg/kg/injection, schedule: Q07DX003 (ip), vehicle: suspension in saline, evaluated on day 20, higher T/C = larger tumour) is 135 % of control and the T/C (T/C endpoint: median tumor weight (est.), dose: 50.0 mg/kg/injection, schedule: Q07DX003 (ip), vehicle: suspension in saline, evaluated on day 20, higher T/C = larger tumour) is 139 % of control [8 of 10 alive on day 20]. Also, the survivor count (T/C endpoint: median tumor weight (est.), dose: 100.0 mg/kg/injection, schedule: Q07DX003 (ip), vehicle: suspension in saline, higher T/C = larger tumour) is 4 of 10 on day 20.
With `COc1cc(C(=O)c2cc3c(cc2C)OCO3)cc(OC)c1OC`, the T/C (T/C endpoint: median tumor weight (est.), dose: 12.5 mg/kg/injection, schedule: Q07DX002 (ip), vehicle: Klucel (hydroxypropylcellulose) (HPC), evaluated on day 20, higher T/C = larger tumour) was 132 % of control. The survivor count under setting [1] was 1 of 10 on day 20.
For the compound `CCN1C=C/C(=C\C=C/c2cc[n+](CC)c3ccccc23)c2ccccc21`, the T/C is 127 % of control [9 of 10 alive] (T/C endpoint: median tumor weight (est.), dose: 0.25 mg/kg/injection, schedule: Q07DX002 (ip), vehicle: saline, evaluated on day 20, higher T/C = larger tumour); 144 % of control under setting [3]; 138 % of control (T/C endpoint: median tumor weight (est.), dose: 500.0 micrograms/kg/injection, schedule: Q07DX002 (ip), vehicle: saline, evaluated on day 20, higher T/C = larger tumour); 139 % of control [9 of 10 alive] (T/C endpoint: median tumor weight (est.), dose: 1000.0 micrograms/kg/injection, schedule: Q07DX002 (ip), vehicle: saline, evaluated on day 20, higher T/C = larger tumour).
In the case of `Clc1ccc(C(c2ccc(Cl)cc2)C(Cl)(Cl)Cl)cc1`, the T/C (T/C endpoint: median tumor weight (est.), dose: 64.0 mg/kg/injection, schedule: Q07DX002 (ip), vehicle: Klucel (hydroxypropylcellulose) (HPC), evaluated on day 20, higher T/C = larger tumour) is 127 % of control.
Regarding `Cc1c(N)nc(C(CC(N)=O)NCC(N)C(N)=O)nc1C(=O)NC(C(=O)NC(C)C(O)C(C)C(=O)NC(C(=O)NCCc1nc(-c2nc(C(=O)NCCCNC(C)c3ccccc3)cs2)cs1)C(C)O)C(OC1OC(CO)C(O)C(O)C1OC1OC(CO)C(O)C(OC(N)=O)C1O)c1cnc[nH]1` (stereo not given), for the setting “T/C endpoint: median tumor weight (est.), dose: 32.0 mg/kg/injection, schedule: Q07DX002 (ip), vehicle: saline, higher T/C = larger tumour”, the survivor count is 3 of 10 on day 20.
As for `CC[C@@]1(O)C(=O)OCc2c1cc1n(c2=O)Cc2cc3cc(O)ccc3nc2-1`, the survivor count (T/C endpoint: median tumor weight (est.), dose: 24.0 mg/kg/injection, schedule: Q07DX002 (ip), vehicle: saline, higher T/C = larger tumour) is 2 of 10 on day 20.
As for `N=[N+]=CC(=O)CCC(NC(=O)C(CCC(=O)C=[N+]=N)NC(=O)CCC(N)C(=O)O)C(=O)O` (stereo not given), the survivor count runs as follows: (T/C endpoint: median tumor weight (est.), dose: 100.0 mg/kg/injection, schedule: Q07DX003 (ip), vehicle: clinical formulation, higher T/C = larger tumour) 6 of 10; (T/C endpoint: median tumor weight (est.), dose: 100.0 mg/kg/injection, schedule: Q07DX003 (ip), vehicle: water, higher T/C = larger tumour) 1 of 10.
Regarding `O=c1c(O)c(-c2cc(O)c(O)c(O)c2)oc2cc(O)cc(O)c12`, the T/C (T/C endpoint: median tumor weight (est.), dose: 200.0 mg/kg/injection, schedule: Q07DX002 (ip), vehicle: saline with Tween-80, evaluated on day 20, higher T/C = larger tumour) is 135 % of control.
Turning to `CC/C(=C(/CC)c1ccc(O)cc1)c1ccc(O)cc1`, the T/C under setting [2] was 135 % of control.
Regarding `CN(N=O)C(N)=O`, the survivor count (T/C endpoint: median tumor weight (est.), dose: 50.0 mg/kg/injection, schedule: Q07DX002 (ip), vehicle: saline, higher T/C = larger tumour) is recorded as 6 of 10 on day 20 and the survivor count (T/C endpoint: median tumor weight (est.), dose: 100.0 mg/kg/injection, schedule: Q07DX002 (ip), vehicle: saline, higher T/C = larger tumour) was 0 of 10 on day 20.
For `CCOC(=O)c1[nH]c2cccc3c2c1CC(Br)C3=O` (stereo not given), the survivor count (T/C endpoint: median tumor weight (est.), dose: 400.0 mg/kg/injection, schedule: Q07DX002 (ip), vehicle: saline with Tween-80, higher T/C = larger tumour) was 6 of 10 on day 20 and the survivor count (T/C endpoint: median tumor weight (est.), dose: 800.0 mg/kg/injection, schedule: Q07DX002 (ip), vehicle: saline with Tween-80, higher T/C = larger tumour) is recorded as 0 of 10 on day 20.
Take `COC1/C=C/O[C@@]2(C)Oc3c(C)c(O)c4c(O)c(cc(O)c4c3C2=O)NC(=O)/C(C)=C\C=C\[C@H](C)C(O)[C@@H](C)[C@@H](O)[C@@H](C)[C@H](OC(C)=O)[C@@H]1C` (stereo not given in full): where the note is “T/C endpoint: median tumor weight (est.), dose: 25.0 mg/kg/injection, schedule: Q07DX002 (ip), vehicle: saline with Tween-80, evaluated on day 20, higher T/C = larger tumour”, the T/C is 144 % of control.
On to `CC(C)CCCCCCCCCCCCC(=O)NCC(=O)NC1C(O)C(O)C(Nc2ncnc3nc[nH]c23)OC1C(O)CO` (stereo not given), for which the T/C under setting [3] was 141 % of control. In addition, the survivor count (T/C endpoint: median tumor weight (est.), dose: 8.0 mg/kg/injection, schedule: Q07DX002 (ip), vehicle: suspension in saline, higher T/C = larger tumour) is reported as 3 of 10 on day 20.
